Where “and” joins values, the source holds several entries; their conditions need not be identical. Identical values can stand only once.

Here are results for 2 compounds from patent US11660286B2, “Methods and compositions comprising a nitrite-reductase promoter for treatment of medical disorders and preservation of blood products” (EpicentRx, Inc., priority 2011, dated 2023).

In the series the test system is hemorrhagic shock. As to the kind of experiment: Resuscitation from hemorrhagic shock, hamster window chamber model: systemic parameters. How it is done: Experiments were performed in 55-65 g male Golden Syrian Hamsters (Charles River Laboratories, Boston, Mass.) fitted with a dorsal skinfold window chamber. Animal handling and care followed the NIH Guide for the Care and Use of Laboratory Animals. The hamster window chamber model is widely used for microvascular studies in the unanesthetized state. The complete surgical technique is described in detail elsewhere, such as in Colantuoni et al. in Am J Physiol 1984; 246:H508-17. […]
Conscious animal was placed in a restraining tube with a longitudinal slit from which the window chamber protruded, then fixed to the microscopic stage for transillumination with the intravital microscope (BX51WI, Olympus, New Hyde Park, N.Y.). […] Systemic (MAP, HR, Het, Hb, PaO2, PaCO2, pH, lactate, plasma nitrite, and metHb) and microvascular (artciorlar and venular diameters, blood flow, and FCD) parameters were analyzed, as previously described (e.g., in P. Nachuraju et al. in Resuscitation 2011; 82:607-613; Cabrales P. in Resuscitation 2009; 80:1431-6; Cabrales et al. in Shock 2007; 27:380-9; and Cabrales et al. in Am J Physiol 2004; 287:H363-73) before hemorrhage (baseline), after hemorrhage (shock), and up to 90 min after volume replacement (resuscitation). […]

In the case of `O=NO` [Nitrite, sodium nitrite], the “Nitrite (plasma)” value (hamster, in vivo) was 791 ± 100 nM and 457 ± 23 nM.

Take `O=C(CBr)N1CC([N+](=O)[O-])([N+](=O)[O-])C1` [RRx-001]: the “Nitrite (plasma)” value (Resuscitation (90 min), mean ± SD) stood at 636 ± 54 nM.
